These are yes or no findings as the source states them, for the method shown. In cells and extracts the contact can be indirect. These calls come from enrichment with a bait or labelling near it, and not all partners need be listed.
Biological target: T1, SLC39A1 (human) (UniProt Q9NY26)
T1 sequence: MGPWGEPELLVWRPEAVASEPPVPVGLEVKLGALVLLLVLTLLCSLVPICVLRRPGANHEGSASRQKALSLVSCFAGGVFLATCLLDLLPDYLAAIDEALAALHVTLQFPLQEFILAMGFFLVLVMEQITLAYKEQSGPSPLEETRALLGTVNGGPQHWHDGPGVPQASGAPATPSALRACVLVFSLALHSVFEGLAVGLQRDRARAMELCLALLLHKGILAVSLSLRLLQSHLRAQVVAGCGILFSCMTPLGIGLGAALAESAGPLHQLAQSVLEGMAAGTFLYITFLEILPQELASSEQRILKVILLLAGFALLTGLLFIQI
Test: affinity purification with mass spectrometry; SLC39A1 pulldown in HEK293-SLC39A1-WTOE cells; AP-MS data of the RESOLUTE interaction proteomics (Frommelt et al, 2025)

binding: binds
B1: SLC30A9 (protein, UniProt Q6PML9 68-568)
chain: STNVQKEGQGSQTLRVEKVPSFETAEGIGTELKAPLKQEPLQVRVKAVLKKREYGSKYTQNNFITGVRAINEFCLKSSDLEQLRKIRRRSPHEDTESFTVYLRSDVEAKSLEVWGSPEALAREKKLRKEAEIEYRERLFRNQKILREYRDFLGNTKPRSRTASVFFKGPGKVVMVAICINGLNCFFKFLAWIYTGSASMFSEAIHSLSDTCNQGLLALGISKSVQTPDPSHPYGFSNMRYISSLISGVGIFMMGAGLSWYHGVMGLLHPQPIESLLWAYCILAGSLVSEGATLLVAVNELRRNARAKGMSFYKYVMESRDPSTNVILLEDTAAVLGVIIAATCMGLTSITGNPLYDSLGSLGVGTLLGMVSAFLIYTNTEALLGRSIQPEQVQRLTELLENDPSVRAIHDVKATDLGLGKVRFKAEVDFDGRVVTRSYLEKQDFDQMLQEIQEVKTPEELETFMLKHGENIIDTLGAEVDRLEKELKKRNPEVRHVDLEIL

Source: publication PMC12130552
